# Data published in PMC7819943, “Rice protein-binding microarrays: a tool to detect cis-acting elements near promoter regions in rice”.
# The chains behind the UniProt entries cited, without tags or fusion partners.
# UniProt Q0JBA9, entry or part of it: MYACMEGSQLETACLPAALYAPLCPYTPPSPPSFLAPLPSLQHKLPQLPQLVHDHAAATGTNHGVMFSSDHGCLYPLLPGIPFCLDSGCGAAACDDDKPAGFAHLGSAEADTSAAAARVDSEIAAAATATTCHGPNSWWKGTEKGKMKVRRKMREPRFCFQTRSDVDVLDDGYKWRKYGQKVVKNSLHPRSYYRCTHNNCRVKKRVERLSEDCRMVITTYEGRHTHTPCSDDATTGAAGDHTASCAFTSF
# Some of the results follow.
# Biological target: OsWRKY34 (Oryza sativa, UniProt Q0JBA9 1-250)
# Assay: protein-binding microarray (RPBM); PBS, 2% BSA, 51.3 ng/ul salmon testes DNA, 50 uM zinc acetate, 200 nM TF, 25 C, 1 h; high values mean tight binding
# Settings: protein: recombinant; tags: N-terminal polyhistidine and DsRed monomer fusion (pET32a); label: CyDye5-dUTP incorporated in the synthesized complementary strand; 3' TTTTT single-stranded linker to array surface; dsDNA, one strand shown
# Outline: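 Per-feature fluorescence intensity (arbitrary units), read on an Axon 4000B scanner, is the binding signal. Transcription factors carrying an N-terminal polyhistidine tag and DsRed fusion were expressed in E. coli BL21-CodonPlus and purified on Ni–NTA. A custom Agilent array, made double-stranded by primer extension with Cy5-dUTP and blocked with 2% BSA, was incubated with 200 nM protein in PBS, 2% BSA, salmon testes DNA and 50 µM zinc acetate at 25 °C for 1 h and then washed.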
row,Sequence,binding signal
1,GCCCAGACACCAAGAACCATCTCGTCCCACGCGGCGACCACGGAGTCACCTAGTGCAG,8500 fluorescence intensity (a.u.)
2,TCTTCTTGAATTTTGCGGTGACATATTAATGCAGGACTAACGGAGTCACCTAGTGCAG,8340 fluorescence intensity (a.u.)
3,CGCCGCCACAGTCGCCGGACTCACTCAAGAAGGTGACTCACGGAGTCACCTAGTGCAG,8680 fluorescence intensity (a.u.)
4,TGATGCCCCGACCTGTAAAACAACATCTGACCACTACACACGGAGTCACCTAGTGCAG,8120 fluorescence intensity (a.u.)
5,AAATTTTTATATTATGGACATCATCTATTCATGTTGTTTACGGAGTCACCTAGTGCAG,9260 fluorescence intensity (a.u.)
6,CTTAATTCCTGCATGCGCACACGGTTACCAATACGCACTTCGGAGTCACCTAGTGCAG,11700 fluorescence intensity (a.u.)
7,GCATTGCTGGTTGGGGTTCGCCTTTCTATGACCGGAGACTCGGAGTCACCTAGTGCAG,14400 fluorescence intensity (a.u.)
8,AGTCCTGGTATTTGTTGTGTATGTTATCATGTATTCACCGCGGAGTCACCTAGTGCAG,8730 fluorescence intensity (a.u.)
9,CGATCAATTTCCTGGCCCAAACTAGTTTGATGTGTGGTTTCGGAGTCACCTAGTGCAG,8580 fluorescence intensity (a.u.)
10,CTTCGCTGTCGACGTCCCTCACCCGCCGCTGCCGCCGTGGCGGAGTCACCTAGTGCAG,8310 fluorescence intensity (a.u.)
11,TCCCACTCAGCTGTCCGTCCGCCAATCACTGTACTTCTATCGGAGTCACCTAGTGCAG,22000 fluorescence intensity (a.u.)
12,ACTTTTACCATGGTTTACATTTCGTGTCACATATAATCTTCGGAGTCACCTAGTGCAG,10600 fluorescence intensity (a.u.)
13,TGATATATTTTAACCATTAACGTATTCCATATTATGTTTTCGGAGTCACCTAGTGCAG,9400 fluorescence intensity (a.u.)
14,CCATCTGTCATATTTGTCATCGTTGACTTTTTTAAATATACGGAGTCACCTAGTGCAG,13600 fluorescence intensity (a.u.)
15,GAGTTTGAATTCCATTCTCCACTCAATATAGGCTGTGTTTCGGAGTCACCTAGTGCAG,8630 fluorescence intensity (a.u.)
16,CTGCGTTATTTTCATCAACTTCAAACCATCTCCGTTAGCACGGAGTCACCTAGTGCAG,8320 fluorescence intensity (a.u.)
17,CATTTTCTACTTTTTATTTCACGAACCAAATCCCCTGAAACGGAGTCACCTAGTGCAG,8960 fluorescence intensity (a.u.)
18,AGACCCAAACCCCTGCTCATATAGCAGCTCATCTCCATCTCGGAGTCACCTAGTGCAG,9290 fluorescence intensity (a.u.)
19,TCTCTCTCGCTCCAGTCGCCATCGCCACCCGCGAAAACCGCGGAGTCACCTAGTGCAG,9510 fluorescence intensity (a.u.)
20,GGTGGAGGAGATTACAACTCTGGTGGCCGTGGTGGTGGCACGGAGTCACCTAGTGCAG,8510 fluorescence intensity (a.u.)
21,CGCCGCCTCGGGCCCAACCGCCGGCCACCGCACGCTGACGCGGAGTCACCTAGTGCAG,8500 fluorescence intensity (a.u.)

row,Sequence,binding signal
1,AGCGCCGGCTTCTTTCTCAATATGTGATTTTCTTTCCTTACGGAGTCACCTAGTGCAG,9840 fluorescence intensity (a.u.)
2,CTCTTGGCCTCGCGTGCAGTGCAGACCGCGCCTCCTATAACGGAGTCACCTAGTGCAG,8430 fluorescence intensity (a.u.)
3,TCTTGACTCTCTTTCGCTGTGCCTGTGAGCAACGCTGTTCCGGAGTCACCTAGTGCAG,11200 fluorescence intensity (a.u.)
4,ACCTTCGACGCGGACGCGCCTCTCCGCGAGCGCGTCTTTCCGGAGTCACCTAGTGCAG,8730 fluorescence intensity (a.u.)
5,CAACAAATGTATTATTACTATCTCTTTTCTACACGATAAACGGAGTCACCTAGTGCAG,8210 fluorescence intensity (a.u.)
6,CCGTTCTCTTGCTGCTGCTGCTTCTGCTTCTGCGCCGCCACGGAGTCACCTAGTGCAG,9550 fluorescence intensity (a.u.)
7,CTTCCATTCTTTCTAGTGCACTGTCTCAGTCAGGCATTATCGGAGTCACCTAGTGCAG,9740 fluorescence intensity (a.u.)
8,ATTAGTCGTGTGCTTGTTTGTGCTGTCCAACTGTACTTAACGGAGTCACCTAGTGCAG,8680 fluorescence intensity (a.u.)
9,TTCCCTCCTCACAAGCCACACACTCTATGCTCTCTATCTGCGGAGTCACCTAGTGCAG,9120 fluorescence intensity (a.u.)
10,TTCATACACACACAATTTTTCTATCATATCGTACAAATTTCGGAGTCACCTAGTGCAG,9060 fluorescence intensity (a.u.)
11,CAATCTCTGCACCCTCGGCTCGGCTCGCACCATTTCCAGTCGGAGTCACCTAGTGCAG,9870 fluorescence intensity (a.u.)
12,GGGTGGTAGGGTTTATACCTGTAAATATTTTCTTCGGTATCGGAGTCACCTAGTGCAG,10800 fluorescence intensity (a.u.)
13,CTTTTACGTCTCGTGCGCTACCCCGTTTTATTATTGCCGACGGAGTCACCTAGTGCAG,12200 fluorescence intensity (a.u.)
14,ATCGATATGATCTGCTTATAACTGAACCTTTAACCTTTTTCGGAGTCACCTAGTGCAG,8220 fluorescence intensity (a.u.)
15,GTTCCATATATTTTAGCACATCTGTAGCACACAGCACATACGGAGTCACCTAGTGCAG,8680 ± 733 fluorescence intensity (a.u.)
16,TTTTACATGATTGGATGACAAAGCCTATTTCGTTTTGTTGCGGAGTCACCTAGTGCAG,8080 fluorescence intensity (a.u.)
17,TTAATTTCTGTTTTGTAATGTTTATGTAATATATACTCTCCGGAGTCACCTAGTGCAG,8940 fluorescence intensity (a.u.)
18,GCAACTTCTCCGACGACGAGGAGCGCCTCATCATCCGCCTCGGAGTCACCTAGTGCAG,10100 fluorescence intensity (a.u.)
19,ACTTCTTCTCACTCAATTCCTCTTCTATTTTCTGAGATTGCGGAGTCACCTAGTGCAG,9300 fluorescence intensity (a.u.)
20,GCGGCGCTGCAGCGCGCCAGGTCGTCCGTCTTTATCCGTCCGGAGTCACCTAGTGCAG,8700 fluorescence intensity (a.u.)
21,CAACTCTTCGTTTTTCCCATACATACTTCCTAAACTGCTACGGAGTCACCTAGTGCAG,10700 fluorescence intensity (a.u.)

# Some of the entries so far, with bars between the fields:
row | Sequence | binding signal
9 | TTCCCTCCTCACAAGCCACACACTCTATGCTCTCTATCTGCGGAGTCACCTAGTGCAG | 9120 fluorescence intensity (a.u.)
10 | TTCATACACACACAATTTTTCTATCATATCGTACAAATTTCGGAGTCACCTAGTGCAG | 9060 fluorescence intensity (a.u.)
11 | CAATCTCTGCACCCTCGGCTCGGCTCGCACCATTTCCAGTCGGAGTCACCTAGTGCAG | 9870 fluorescence intensity (a.u.)
12 | GGGTGGTAGGGTTTATACCTGTAAATATTTTCTTCGGTATCGGAGTCACCTAGTGCAG | 10800 fluorescence intensity (a.u.)
13 | CTTTTACGTCTCGTGCGCTACCCCGTTTTATTATTGCCGACGGAGTCACCTAGTGCAG | 12200 fluorescence intensity (a.u.)

# Later entries:

row,Sequence,binding signal
1,ACCCACATTAGTCACACGCACACACACCAACATCCACACACGGAGTCACCTAGTGCAG,11000 fluorescence intensity (a.u.)
2,CCACTTGTACATATACAACTTGTTTTGTGGGGAGGGGTGTCGGAGTCACCTAGTGCAG,12700 fluorescence intensity (a.u.)
3,CACTACCTCAGTATTCTCTACTACTACTCTTTTCTCAGAGCGGAGTCACCTAGTGCAG,8470 fluorescence intensity (a.u.)
4,ACCGGCCCACAACGACCCAGACACTCTCGCCGTCGCCGCCCGGAGTCACCTAGTGCAG,9240 fluorescence intensity (a.u.)
5,AGAGGAGACAGAACCCCTGACTTTATACAGTTTGCAGTTACGGAGTCACCTAGTGCAG,8340 fluorescence intensity (a.u.)
6,TATTAGCTACTCCACAGCGTTAGCTTCGTCCACCCAATTTCGGAGTCACCTAGTGCAG,10200 fluorescence intensity (a.u.)
7,GTCATTGGCTTCGCATCGCCTAGGGGTTTATTGTAGTGTCCGGAGTCACCTAGTGCAG,8360 fluorescence intensity (a.u.)
8,GAGAGGTGTTGCAATGTGCATTGGATGTGTAGATAGAGCCCGGAGTCACCTAGTGCAG,8040 fluorescence intensity (a.u.)
9,AGTGGTTTCATATTCTGTCAAGTTGCACATTGCTCTAATTCGGAGTCACCTAGTGCAG,9810 fluorescence intensity (a.u.)
10,GCCCCATACATTTCTGATTGCTCCCATACGATTTGGGCGGCGGAGTCACCTAGTGCAG,10300 fluorescence intensity (a.u.)
11,GGTGGCTGCTGATTCTTTCTTCTTCTCCTCTCTCGCTGGCCGGAGTCACCTAGTGCAG,9300 fluorescence intensity (a.u.)
12,GCTGTCTCGCTCAAGCGCGACCTACCACAGCATCGGATCGCGGAGTCACCTAGTGCAG,8050 fluorescence intensity (a.u.)
13,TGGAGACCACGTCAGCACCCTCTCTCTTTTTCTCCTCTCTCGGAGTCACCTAGTGCAG,8590 fluorescence intensity (a.u.)
14,CAATCTCCCACTCCATTCCGGCCGCGCATTCTCCCGCTCTCGGAGTCACCTAGTGCAG,14400 fluorescence intensity (a.u.)
15,CATCGTCTTTTCTGTTCCGTGCAAGCGCTGTTGCCTGCCTCGGAGTCACCTAGTGCAG,8780 fluorescence intensity (a.u.)
16,GACAGTTTTTCGGGTTCCTATCTTTCACGTTTTCGTCCATCGGAGTCACCTAGTGCAG,8320 fluorescence intensity (a.u.)
17,TGCAGAACATGAATCACACTCATCCTTGCACTGGCCATCCCGGAGTCACCTAGTGCAG,8890 fluorescence intensity (a.u.)
18,TGGGACTTTATTTGCACTGGTTTTGGGAGTTGAGGGACACCGGAGTCACCTAGTGCAG,8550 fluorescence intensity (a.u.)
19,GTGGTTGATTTGACCTTTTACATTGTACAGATGGTATTGGCGGAGTCACCTAGTGCAG,8480 fluorescence intensity (a.u.)
20,CCACCATTCCGCGTTAAAGCGTTTTCCCGCACGGGCTGAGCGGAGTCACCTAGTGCAG,8220 fluorescence intensity (a.u.)
21,AGAAGACGACACTCCCCGCCATCCAGAGCTGCCCTATATGCGGAGTCACCTAGTGCAG,8280 fluorescence intensity (a.u.)

row,Sequence,binding signal
1,GTTTGACCGTTTATTTTATTCAAAAACTTTTGTGATATGTCGGAGTCACCTAGTGCAG,8440 fluorescence intensity (a.u.)
2,GCCGATAAGGTGCTCCGCCTCCGCCGCGGCTTGCCTTACACGGAGTCACCTAGTGCAG,8690 fluorescence intensity (a.u.)
3,ACGCTATCCCGCCGCCGCCGCGTGTCTCCCCAATCCCAATCGGAGTCACCTAGTGCAG,8760 fluorescence intensity (a.u.)
4,CGCCCCTCCCCTTTGGCGCCGCCGCGCCTGCGTTGACCCTCGGAGTCACCTAGTGCAG,8230 fluorescence intensity (a.u.)
5,CCAATTCCCACTTGTCAGTTAGAACTTCACATGTCCAAATCGGAGTCACCTAGTGCAG,8570 fluorescence intensity (a.u.)
6,TCTTGTGCCTTTTGTTCTTATGTAAGCTTATGTGTCATCTCGGAGTCACCTAGTGCAG,11300 fluorescence intensity (a.u.)
7,ATTTTCAACCCCGTCACATGTGACTAGTTATCGGATCGCACGGAGTCACCTAGTGCAG,8120 fluorescence intensity (a.u.)
8,CGATTCGCGCTCTCCCCGACTCCAGCGCCTTCGTCTTCTTCGGAGTCACCTAGTGCAG,9960 fluorescence intensity (a.u.)
9,GCGGCGGAGGAGGGCAAGGCGAAGTGCGGCGGCGGGGAAGCGGAGTCACCTAGTGCAG,10500 fluorescence intensity (a.u.)
10,TGTATTTTTCTCCATCCCTTTCTTCAGTACCAGGATTAATCGGAGTCACCTAGTGCAG,9690 fluorescence intensity (a.u.)
11,GCACCACTCTCCTCTCTCTTGGTTCCATGCCTCGCCGTTTCGGAGTCACCTAGTGCAG,10000 fluorescence intensity (a.u.)
12,CGGCGCTCGGTTACACACACAGCCGATCCTCACCGTCCGTCGGAGTCACCTAGTGCAG,9380 fluorescence intensity (a.u.)
13,GGTCTCCCGGCGCCGACCTCGGCTTCTTCCTCCACCTCTCCGGAGTCACCTAGTGCAG,9800 fluorescence intensity (a.u.)
14,GGCAACTACACAGGATCCTGACCTGAATTTTCAGATGGGGCGGAGTCACCTAGTGCAG,8990 fluorescence intensity (a.u.)
15,GGATTCCGCCCCTGGGTTGTTTATTGTGTGATTCTTTTTTCGGAGTCACCTAGTGCAG,9400 fluorescence intensity (a.u.)
16,GCCTGTCACTGCCCTCGTCGCATCGTCGTCGCTGTCGTCGCGGAGTCACCTAGTGCAG,8100 fluorescence intensity (a.u.)
17,ATGGAGATGGGGTGGGTTGGATTTGGATTGGATTTCTGCCCGGAGTCACCTAGTGCAG,16300 fluorescence intensity (a.u.)
18,CCATCTATATCTATCTATTACTATCTATATCTTCTTTATACGGAGTCACCTAGTGCAG,9130 fluorescence intensity (a.u.)
19,ACCCAGTCAAACTTCTATGAGAAGCTGTCCACTGTCATCGCGGAGTCACCTAGTGCAG,8060 fluorescence intensity (a.u.)
20,TATTACGTGTGCCGTTCATATGCAGGGAATGGGGTTTTGACGGAGTCACCTAGTGCAG,14400 fluorescence intensity (a.u.)
21,TGTCAAACTACAACTTACTTTCTCGTTTTCTGTTAATATACGGAGTCACCTAGTGCAG,9230 fluorescence intensity (a.u.)
